Laboratory results as given in US20150140000A1.
These are yes or no findings as the source states them, for the method shown. Some binding calls cover weakened binding; strength is not graded here.

The chains behind the UniProt entries cited, without tags or fusion partners. Where a name states a change or a piece, a line headed by the entry shows the natural chain unless it says otherwise.
UniProt O15455: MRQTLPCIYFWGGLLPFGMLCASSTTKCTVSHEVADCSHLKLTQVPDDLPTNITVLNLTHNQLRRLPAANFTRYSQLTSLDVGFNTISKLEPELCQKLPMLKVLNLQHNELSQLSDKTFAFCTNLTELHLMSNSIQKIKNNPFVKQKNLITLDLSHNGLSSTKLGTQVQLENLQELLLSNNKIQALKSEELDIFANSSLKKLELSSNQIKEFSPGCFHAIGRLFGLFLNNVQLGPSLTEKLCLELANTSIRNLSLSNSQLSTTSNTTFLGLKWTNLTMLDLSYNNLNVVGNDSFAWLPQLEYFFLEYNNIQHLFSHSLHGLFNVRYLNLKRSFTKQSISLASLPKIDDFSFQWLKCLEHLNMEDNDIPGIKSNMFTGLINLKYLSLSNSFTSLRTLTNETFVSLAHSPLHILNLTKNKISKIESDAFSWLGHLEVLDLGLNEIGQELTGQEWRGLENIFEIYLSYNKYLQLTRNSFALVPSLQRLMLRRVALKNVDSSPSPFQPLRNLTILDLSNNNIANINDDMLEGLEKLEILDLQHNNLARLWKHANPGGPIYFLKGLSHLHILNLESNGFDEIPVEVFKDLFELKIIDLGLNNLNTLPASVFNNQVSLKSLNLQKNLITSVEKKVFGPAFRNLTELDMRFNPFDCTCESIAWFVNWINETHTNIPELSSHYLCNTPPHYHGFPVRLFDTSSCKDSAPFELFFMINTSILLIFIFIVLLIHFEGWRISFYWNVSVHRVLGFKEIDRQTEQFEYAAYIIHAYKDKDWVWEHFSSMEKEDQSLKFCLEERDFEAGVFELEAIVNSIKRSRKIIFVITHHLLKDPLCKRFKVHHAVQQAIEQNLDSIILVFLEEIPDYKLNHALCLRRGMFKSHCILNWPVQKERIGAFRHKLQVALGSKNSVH

B1: antibody 11E1 (antibody, V domains shown)
VH: QVQLQQPGAELVRPGASVKLSCKASGYTFTNYWMNWVKQRPGQGLEWIGMIDPSDSETHYNQMFKDKATLTVDKSSSTAYMQLSSLTSEDSAVYYCARGGASSDYYYFDYWGQGTTLTVSSASTK
VL: ETTVTQSPASLSMAIGEKVTIRCITSTDIHDDINWYQQKPGEPPKLLISEGNTLRPGVPSRFSSSGYGTDFVFTIENMLSEDVADYYCLQSDNLPRTFGGGTKLEIKRT
B2: antibody 7G11 (antibody, V domains shown)
VH: EVQLQQYGAELGKPGTSVKLSCKVSGYNITYTYMHWVNQRPGKGLEWIGRIDPANGNTIYGEKFKNKATLTADTSSNTAYMQLSQLKSDDTAIYFCAMGEFDYFDHWGQGVMVTVSS
VL: DIQMTQSPASLSASLGETVSIECLASEDISNDLAWYQQKSGKSPQVLIYAASRLEDGVPSRFSGSGSGTRYSLKISGMQPEDEADYFCQQSYKYPVTFGSGTKLEIK
B3: antibody 31F6 (antibody, V domains shown)
VH: EVQLQQSGAELGKPGTSVKLSCKVSGYNIRYTYMHWVNQRPGKGLEWIGRIDPANGDSIYGEDFKTKATLTADTSSNTAYMQLSQLKSDDTAIYFCAMGEFDYFDYWGQGVMVTVSSASTK
VL: DIQMTQSPPSLSASLGETVSIECLASEGISNDLAWYQQRSGKSPQLLIYAASRLQDGVPSRFSGSGSGTRYSLKISGMQPEDEADYFCQQNYKYPLTFGSGTKLEIK
B4: antibody 32C4 (antibody, V domains shown)
VH: EVQLQQYGAELGKPGTSVKLSCKVSGYNIWSTYIYWVNQRPGKGLEWIGRIDPANGNTIYAEKFKTKATLTADTSSNTAYMQLSQLKSDDTAIYFCAMGDHGGYVMDAWGQGASVTVSS
VL: DIQMTQSPGSLSASLGETVSIECLASEDIYSYLAWYQQKPGKSPQLLIYAANRLEDGVPSRFSGSGSGTQYSLKISGMQPEDEGDYFCLQGSEFPYTFGTGTKLELK
B5: antibody 37B7 (antibody, V domains shown)
VH: QVQLQQSGTELVKPGSSVKISCKASGYTFTSNYMHWIRQLPGNGLEWIGWIFPGDGDTNYNQKFNGKATLTADKSSSTAYMQLSSLTSEDYAVYFCARSDGDWYFDFWGPGTMVTVSS
VL: DIQMTQSPGSLSASLGETVTIQCQASEDIYSGLAWYQQKPRKSPQLLISAASRLQDGVPSRFSGSGSGTQYSLKISSMQTEDEGVYFCQQGVKYPNTFGPGTKLELK

These binders were tested against wild type human TLR3 expressed in 293T cells (human) (UniProt O15455) (assay: FACS on cells expressing TLR3).

binding, binds:
B1
B2
B3
B4
B5
